Reference: the supplement of paper PMC7661543
± gives the standard deviation of the averaged measurements. The effect of the compound repeats well; differences between the knockouts mostly do not.

Test system: ZR-75-1
Test: relative cell number vs DMSO control (72 h) (% of DMSO); higher = less growth inhibition (more cells)
Experimental: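 QMAP-Seq: a pool of 5 breast cancer cell lines (ZR-75-1, SKBR3, HCC-38, MDA-MB-231, BT-20), each carrying 12 doxycycline-inducible Cas9 sgRNA perturbations (11 knockouts plus non-targeting sgNT), was treated with compounds for 72 h at four 10-fold doses (10 nM-10 uM or 1 nM-1 uM range). Barcodes were amplified and sequenced, and cell number was interpolated from 293T spike-in standard curves. The result is expressed as % of the median of DMSO wells. Two biological replicates.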

[1] = sgRNA knockout: sgATF3, 1000 nM
[2] = sgRNA knockout: sgATF4, 1000 nM
[3] = sgRNA knockout: sgATF6, 1000 nM
[4] = sgRNA knockout: sgATG7, 1000 nM
[5] = sgRNA knockout: sgERN1, 1000 nM
[6] = sgRNA knockout: sgHSF2, 1000 nM
[7] = sgRNA knockout: sgNFE2L2, 10 nM
[8] = sgRNA knockout: sgNFE2L2, 100 nM
[9] = sgRNA knockout: sgNFE2L2, 1000 nM
[10] = sgRNA knockout: sgSLC35F2, 10 nM
[11] = sgRNA knockout: sgSLC35F2, 100 nM
[12] = sgRNA knockout: sgSLC35F2, 1000 nM
[13] = sgRNA knockout: sgXBP1, 1000 nM
[14] = sgRNA knockout: sgATF3, 10000 nM
[15] = sgRNA knockout: sgATF4, 10000 nM
[16] = sgRNA knockout: sgATF6, 10000 nM
[17] = sgRNA knockout: sgATG7, 10000 nM
[18] = sgRNA knockout: sgERN1, 10000 nM
[19] = sgRNA knockout: sgHSF2, 10000 nM
[20] = sgRNA knockout: sgNFE2L2, 10000 nM
[21] = sgRNA knockout: sgSLC35F2, 10000 nM
[22] = sgRNA knockout: sgXBP1, 10000 nM

Row | Structure (SMILES) | relative cell number (sgRNA knockout: sgATF3, 10 nM) | relative cell number (sgRNA knockout: sgATF3, 100 nM) | relative cell number [1] | relative cell number (sgRNA knockout: sgATF4, 10 nM) | relative cell number (sgRNA knockout: sgATF4, 100 nM) | relative cell number [2] | relative cell number (sgRNA knockout: sgATF6, 10 nM) | relative cell number (sgRNA knockout: sgATF6, 100 nM) | relative cell number [3] | relative cell number (sgRNA knockout: sgATG7, 10 nM) | relative cell number (sgRNA knockout: sgATG7, 100 nM) | relative cell number [4] | relative cell number (sgRNA knockout: sgERN1, 10 nM) | relative cell number (sgRNA knockout: sgERN1, 100 nM) | relative cell number [5] | relative cell number (sgRNA knockout: sgHSF2, 10 nM) | relative cell number (sgRNA knockout: sgHSF2, 100 nM) | relative cell number [6] | relative cell number [7] | relative cell number [8] | further results
1 | CC(C)c1cc(-c2n[nH]c(=O)n2-c2ccc3c(ccn3C)c2)c(O)cc1O [Ganetespib] | 79.812 ± 0.03 | 22.1 ± 8.8 | 18.3 ± 4.9 | 107 ± 20 | 24.6 ± 4.4 | 26.9 ± 2.2 | 84.7 ± 46 | 28.9 ± 6.4 | 15.3 ± 12 | 114 ± 27 | 29 ± 12 | 20.6 ± 3.6 | 98.5 ± 17 | 28.9 ± 4.7 | 21.8 ± 11 | 87.5 ± 18 | 23.1 ± 5.9 | 21.8 ± 2.1 | 59.8 ± 12 | 21.9 ± 4.5 | relative cell number (sgRNA knockout: sgATF3, 1 nM): 105 ± 28; relative cell number (sgRNA knockout: sgATF4, 1 nM): 124 ± 6.5; relative cell number (sgRNA knockout: sgATF6, 1 nM): 106 ± 41; relative cell number (sgRNA knockout: sgATG7, 1 nM): 72.6 ± 30; relative cell number (sgRNA knockout: sgERN1, 1 nM): 89.9 ± 15; relative cell number (sgRNA knockout: sgHSF2, 1 nM): 101 ± 15; relative cell number (sgRNA knockout: sgNFE2L2, 1 nM): 90.9 ± 4.2; relative cell number [9]: 14.7 ± 0.83; relative cell number (sgRNA knockout: sgSLC35F2, 1 nM): 100 ± 19; relative cell number [10]: 96.57 ± 0.29; relative cell number [11]: 13.9 ± 5.6; relative cell number [12]: 18.4 ± 3; relative cell number (sgRNA knockout: sgXBP1, 1 nM): 88.2 ± 4.6; relative cell number (sgRNA knockout: sgXBP1, 10 nM): 80.8 ± 23; relative cell number (sgRNA knockout: sgXBP1, 100 nM): 22.2 ± 2.5; relative cell number [13]: 21.3 ± 6.1
2 | Cc1sc2c(c1C)C(c1ccc(Cl)cc1)=N[C@@H](CC(=O)OC(C)(C)C)c1nnc(C)n1-2 [(+)-JQ1] | 105 ± 34 | 132 ± 64 | 94.9 ± 11 | 61.6 ± 3.7 | 151 ± 89 | 112 ± 11 | 92.7 ± 6.3 | 89.6 ± 3.5 | 67.6 ± 22 | 105 ± 22 | 95.8 ± 16 | 87.6 ± 16 | 97 ± 2.5 | 139 ± 35 | 121 ± 23 | 102 ± 0.45 | 131 ± 54 | 103 ± 5 | 112 ± 5.2 | 96.5 ± 13 | relative cell number [14]: 95.4 ± 32; relative cell number [15]: 50.7 ± 2.2; relative cell number [16]: 47.5 ± 20; relative cell number [17]: 70 ± 6.2; relative cell number [18]: 67.6 ± 14; relative cell number [19]: 80.4 ± 3.3; relative cell number [9]: 94.2 ± 20; relative cell number [20]: 84.2 ± 5.2; relative cell number [10]: 83.7 ± 53; relative cell number [11]: 131 ± 62; relative cell number [12]: 87.4 ± 40; relative cell number [21]: 77.4 ± 1.2; relative cell number (sgRNA knockout: sgXBP1, 10 nM): 114 ± 18; relative cell number (sgRNA knockout: sgXBP1, 100 nM): 104 ± 11; relative cell number [13]: 102 ± 1.8; relative cell number [22]: 76.8 ± 11
3 | Cc1ccc(F)c(NC(=O)Nc2ccc(-c3cccc4[nH]nc(N)c34)cc2)c1 [Linifanib] | 96 ± 11 | 102 ± 15 | 106 ± 18 | 95.1 ± 39 | 133 ± 9.5 | 98.4 ± 5.9 | 100 ± 26 | 143 ± 5.1 | 106 ± 38 | 91.8 ± 26 | 130.9 ± 0.16 | 114 ± 92 | 105 ± 6.4 | 115 ± 12 | 103 ± 17 | 104 ± 19 | 105 ± 7.3 | 128 ± 1.4 | 88.7 ± 26 | 106 ± 2 | relative cell number [14]: 27.5 ± 14; relative cell number [15]: 44.3 ± 12; relative cell number [16]: 35.9 ± 2.4; relative cell number [17]: 30.2 ± 5.8; relative cell number [18]: 38.5 ± 6.3; relative cell number [19]: 32.1 ± 1.1; relative cell number [9]: 83.4 ± 41; relative cell number [20]: 25.3 ± 0.89; relative cell number [10]: 89.3 ± 23; relative cell number [11]: 107 ± 18; relative cell number [12]: 122 ± 59; relative cell number [21]: 26.4 ± 16; relative cell number (sgRNA knockout: sgXBP1, 10 nM): 115 ± 26; relative cell number (sgRNA knockout: sgXBP1, 100 nM): 98.8 ± 4.1; relative cell number [13]: 89.1 ± 24; relative cell number [22]: 32.2 ± 7.3
4 | C=C1C(=O)O[C@H]2[C@H]1CC/C(C)=C/CC[C@@]1(C)O[C@@H]21 [Parthenolide] | 125 ± 9.2 | 95.8 ± 40 | 88.74 ± 0.86 | 139 ± 45 | 128 ± 60 | 113 ± 15 | 98.7 ± 23 | 147 ± 47 | 55.1 ± 15 | 99.1 ± 20 | 123 ± 1.9 | 91.2 ± 49 | 123 ± 28 | 92.7 ± 34 | 96.3 ± 14 | 102 ± 17 | 97.4 ± 18 | 107 ± 13 | 115 ± 20 | 111 ± 20 | relative cell number [14]: 106 ± 2.3; relative cell number [15]: 82 ± 7.1; relative cell number [16]: 104 ± 22; relative cell number [17]: 101 ± 36; relative cell number [18]: 115 ± 19; relative cell number [19]: 94.4 ± 16; relative cell number [9]: 109 ± 51; relative cell number [20]: 107 ± 12; relative cell number [10]: 70.7 ± 7.9; relative cell number [11]: 96.7 ± 17; relative cell number [12]: 70.5 ± 10; relative cell number [21]: 96 ± 43; relative cell number (sgRNA knockout: sgXBP1, 10 nM): 94.7 ± 2.5; relative cell number (sgRNA knockout: sgXBP1, 100 nM): 99.8 ± 26; relative cell number [13]: 105 ± 12; relative cell number [22]: 108.03 ± 0.059
